## Library screen at single concentrations

Source: ChEMBL document CHEMBL3988442, “University of Dundee, Small-Polar-MMV Screening Library” (2021).

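Phenotypic screen: M. tuberculosis growth, glucose 7H9 medium, 3 days; the read-out is not stated. Tested at 500 µM. Direction is inferred from retests: higher values go with more growth inhibition. Size under these conditions: about 18,000 compounds, about 1,400 of them at 50% or above in at least one test.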

Each number is a percent effect as filed.
The controls that fix the scale are not given in the record; negative values are as filed.
Compounds were drawn at random from those tested, without regard to their results.

| compound | effect |
|---|---|
| `Cc1nc(CCCN)sc1C` | -3.218% |
| `c1nc(CN2CCCNCC2)cs1` | -9.582% |
| `CNCc1nnc(C2CC2)n1C` | -9.601% |
| `O=C(NCCCn1cccn1)c1ccc2c(c1)OCO2` | 49.6% |
| `CCC(=O)NC1CCCN(Cc2noc(C)n2)C1` (configuration not stated) | 8.715% |
| `CCOC(=O)Cn1nc(C)c(CN)c1C` | 5.197% |
| `O=C(COc1cccc(F)c1)N1CCN(CCO)CC1` | 0.1095% |
| `O=C(c1ccoc1)N1CCCCC1Cn1cccn1` (configuration not stated) | 10.77% |
| `O=C(CSc1ccncc1)N1CCCC2(CCOC2)C1` (configuration not stated) | 22.11% |
| `CC(=O)Nc1cccc(N2CCN(CC3CC3)CC2)c1` | 31.14% |
| `CCOCCC(=O)N1CCN(C(C)c2ccsc2)CC1` (configuration not stated) | 38.12% |
| `Cn1ncnc1CCNC(=O)c1ccsc1` | 2.656% |
| `CC1(C)CN(C(=O)c2cccnc2)CC2(CCCC2)O1` | 7.262% |
| `Cc1n[nH]cc1CNCCNc1ncccn1` | -7.285% |
| `Cn1ccnc1-c1noc(NC(=O)c2ccccn2)n1` | 10.05% |
| `O=C(COc1ccccc1Cl)NCC(=O)c1ccco1` | 52.2% |
| `COc1cc(Cl)ccc1CN1CCNC(=O)C1` | 30.41% |
| `CC(C)(C)OC(=O)NCCCOCCOCCO` | 9.492% |
| `Cc1ccc(CNCc2cncs2)c(N2CCCC2)n1` | -7.839% |
| `c1c(N2CCCC2)nnc2c1CNCC2` | -5.019% |
| `CC(=O)Nc1ccc(-n2nc(C)cc2C)nc1` | 49% |
| `CNCC(=O)NC1CCS(=O)(=O)C1` (configuration not stated) | 9.319% |
| `NC(=O)c1cc(S(=O)(=O)NCCc2ccccc2)cs1` | 63.46% |
| `O=C(NC1CCS(=O)(=O)C1)N1CCc2ccccc2C1` (configuration not stated) | 22.39% |
| `CNCCOc1cccc(C)c1` | 45.73% |
| `CC(C)C(C)(N)CNC(=O)OC(C)(C)C` (configuration not stated) | 1.257% |
| `CC(C)c1ccn(CC(=O)N2CCOCC2)n1` | -4.555% |
| `Cc1nc(C)c(C(=O)NCCN2CCCCC2)o1` | 2.724% |
| `CC(C)CNc1cccc(-n2cnnn2)c1` | 70.88% |
| `Nc1nnc(CCNC(=O)C2CCc3ccccc32)o1` (configuration not stated) | 1.21% |
| `COc1ccc(CN2CCCNCC2)cc1` | 63.18% |
| `Cn1cc(C(N)=O)c(NC(=O)c2ccc(Br)cc2)n1` | 58.4% |
| `CCS(=O)(=O)N1CCC(NCc2cnn(C)c2)CC1` | -2.022% |
| `O=C1NCCCCC1Nc1nccc(C(F)(F)F)n1` (configuration not stated) | 4.636% |
| `COc1cc(NCC(C)C)ccn1` | -0.9698% |
| `Cc1cc(C(=O)N(C)C(C)c2ccncc2)cc(=O)[nH]1` (configuration not stated) | -6.594% |
| `CC(=O)N(C)Cc1nc2ccccc2[nH]1` | 11.12% |
| `CCO[C@H]1CN(c2ncccc2C(F)(F)F)C[C@@H]1O` | 10.13% |
| `COc1csc(-c2cc(N)[nH]n2)c1` | 30.53% |
| `CN(C(c1ccccc1)c1ccccn1)S(C)(=O)=O` (configuration not stated) | 35.4% |
| `COC[C@@H](O)CNC1CCOc2c(Br)cccc21` (some centres not stated) | 45.3% |
| `CC(=O)c1ccc2c(c1)CCC(=O)N2C` | 28.51% |
| `CC(C)n1cncc1CO` | 9.153% |
| `CS(=O)(=O)CC1(CNCc2ccsc2)CC1` | 36.56% |
| `CCC(N)C(=O)N(CC)Cc1ccoc1` (configuration not stated) | 24.83% |
| `CN(CC(C)(CO)CO)c1ncc(Cl)cc1Cl` | 80.49% |
| `CC(C)NC(=O)Cn1cnc2c1c(=O)n(C)c(=O)n2C` | 6.282% |
| `NCc1ccc(OCC(=O)Nc2cccnc2)cc1` | -0.5278% |
| `CC(N)c1ccc2c(c1)CC(=O)N2C` (configuration not stated) | 35.33% |
| `COc1cccc(NC(=O)C2CCCN(C)C2)c1` (configuration not stated) | 13.51% |
| `CCC(C)(C)NC(=O)CS(=O)(=O)c1ccccn1` | -8.067% |
| `CC1(C)COCCN1C(=O)COc1ccc(F)cc1F` | -8.263% |
| `O=C(CN1CCCCC1)N1CCCCC1` | 0.3549% |
| `c1c[nH]c(C2CCNC2)n1` (configuration not stated) | -0.3812% |
| `COCC(O)CNc1cc(C)nc2ccccc12` (configuration not stated) | -5.452% |
| `COc1ccc(CNC(=O)C2(C)CCNCC2)cc1` | 0.5513% |
| `Cc1ncsc1CCN(C)C(=O)c1cnon1` | -17.13% |
| `CC(CN)N(C)C(=O)c1ccccc1Br` (configuration not stated) | -7.214% |
| `COc1cc(CN)c(Br)cn1` | -2.965% |
| `c1cc(CSc2nnc(NCC3CCCO3)s2)on1` (configuration not stated) | 35.63% |
| `O=C(c1ccccc1)N1CCCNCC1` | 2.937% |
| `COC(=O)c1ccc(=O)n(CC(=O)NCCC(C)C)c1` | -4.805% |
| `CCOc1ccc(-c2cc(N)[nH]n2)cc1` | 63.33% |
| `COc1ccccc1CCNC1CCN(C(C)=O)CC1` | 15.17% |
| `CC(C)C(N)C1(CO)CCC1` (configuration not stated) | -12.85% |
| `O=C(COc1cccc(Cl)c1)NCC1CCS(=O)(=O)C1` (configuration not stated) | 16.88% |
| `NC(=O)c1nnc(N)o1` | 24.74% |
| `Cc1ccc(C(=O)NCc2nnc(N)o2)cc1Br` | 40.6% |
| `CCN(C(=O)Cc1cccs1)C(C)CS(C)(=O)=O` (configuration not stated) | 30.18% |
| `OCCn1nc(C2CCCC2)nc1C1CCOC1` (configuration not stated) | -5.855% |
| `Cc1ccnc(CCO)n1` | -7.78% |
| `COc1ccc(OCC(O)CN2CCN(C)CC2)cc1` (configuration not stated) | 2.3% |
| `CN(CC(=O)Nc1ccc2oc(=O)[nH]c2c1)C1CC1` | -10.72% |
| `O=C(NC(C1CCNCC1)[C@H]1C[C@H](O)C1)c1cc[nH]n1` (some centres not stated) | 1.306% |
| `Fc1cccnc1OC1CCNCC1` | -0.01549% |
| `N#Cc1cc(NC(=O)N2CCOCC2)ccc1Cl` | 10.07% |
| `c1ccc(-c2nc3c([nH]2)CCNC3)cc1` | 31.86% |
| `Cc1csc(C(=O)N[C@@H](C)C(N)=O)c1I` | 12.94% |
| `Cc1cc(C(=O)NCCc2ccccc2F)[nH]n1` | 48.85% |
| `Cc1cc(NC(=O)CCN2CCCCC2C(N)=O)no1` (configuration not stated) | 15.22% |
| `c1cncc(CN2CCC(OC3CCOCC3)CC2)c1` | -4.791% |
| `COCC(O)CN(C)C(=O)c1cccc(Br)c1Cl` (configuration not stated) | 26.83% |
| `CN(CC1(O)CCCC1)c1ncccn1` | 16.28% |
| `O=C(C1CC1)N1CCC(Oc2cccnc2)C1` (configuration not stated) | 24.58% |
| `O=C(c1cc(Cl)c[nH]1)N1CCOC(c2cccs2)C1` (configuration not stated) | 68.32% |
| `CC(C)Cc1cc(C(=O)NCC2(O)CCOCC2)[nH]n1` | 15.44% |

The first 9 entries again:

compound,effect
Cc1nc(CCCN)sc1C,-3.218%
c1nc(CN2CCCNCC2)cs1,-9.582%
CNCc1nnc(C2CC2)n1C,-9.601%
O=C(NCCCn1cccn1)c1ccc2c(c1)OCO2,49.6%
CCC(=O)NC1CCCN(Cc2noc(C)n2)C1 (configuration not stated),8.715%
CCOC(=O)Cn1nc(C)c(CN)c1C,5.197%
O=C(COc1cccc(F)c1)N1CCN(CCO)CC1,0.1095%
O=C(c1ccoc1)N1CCCCC1Cn1cccn1 (configuration not stated),10.77%
O=C(CSc1ccncc1)N1CCCC2(CCOC2)C1 (configuration not stated),22.11%